Data on 20 compounds can be found in the supplement of paper PMC10470496.

Where a name gives a salt, the structure may show the parent alone. The list shows a part of the results. Repeats are few or missing, and single values can be far off.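 The three strains are clinical Candida auris isolates from the CDC resistance isolate bank, from clades III, IV and I, grown in RPMI-1640 at 35°C. Growth is background-corrected OD600 relative to vehicle-only wells on the same plate; a hit meant over 50% inhibition in at least two strains plus a plate-corrected B-score above 0.1.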

Test systems include C. auris AR-384; C. auris AR-386; C. auris AR-387.
Test in all cases: growth relative to vehicle control (OD600 ratio) (fraction); higher = less inhibition
Common to all, as to conditions: 24 h

Consider `N[C@@H](Cc1cc(I)c(Oc2cc(I)c(O)c(I)c2)c(I)c1)C(=O)O` [L-Thyroxine], for which the growth in the assay with C. auris AR-384 (1 µM) was found to be 1.11; in the assay with C. auris AR-384 (10 µM), 0.98; in the assay on C. auris AR-386 (1 µM), 1.14; with C. auris AR-386 (10 µM) it was 1; in the assay on C. auris AR-387 (1 µM), 0.89; in the assay with C. auris AR-387 (10 µM) it was 0.61.
As to `CC(C(=O)O)c1cccc(C(=O)c2ccccc2)c1` (stereo not given) [Ketoprofen], the growth with C. auris AR-384 (1 µM) came out at 0.85; in the assay on C. auris AR-384 (10 µM) it was 0.58; in the assay with C. auris AR-386 (1 µM), 0.83; in the assay with C. auris AR-386 (10 µM) it was 1.08; in the assay on C. auris AR-387 (1 µM) it was 0.84; in the assay with C. auris AR-387 (10 µM), 0.72.
With `CN(CCOc1ccc(CC2SC(=O)NC2=O)cc1)c1ccccn1` (stereo not given) [Rosiglitazone], the growth in the assay on C. auris AR-384 (1 µM) amounted to 0.78; in the assay on C. auris AR-384 (10 µM), 1.22; with C. auris AR-386 (1 µM), 0.99; in the assay with C. auris AR-386 (10 µM), 1.16; in the assay on C. auris AR-387 (1 µM) it was 1.17; in the assay with C. auris AR-387 (10 µM), 1.13.
Turning to `Cc1nc2n(c(=O)c1CCN1CCC(c3noc4cc(F)ccc34)CC1)CCCC2` [Risperidone], the growth with C. auris AR-384 (1 µM) came to 0.83; in the assay with C. auris AR-384 (10 µM), 1.25; with C. auris AR-386 (1 µM) it was 1.38; in the assay on C. auris AR-386 (10 µM) it was 0.78; with C. auris AR-387 (1 µM) it was 1; in the assay on C. auris AR-387 (10 µM), 0.94.
In the case of `CN(C)c1ccc2nc3ccc(=[N+](C)C)cc-3sc2c1` [Methylene Blue], the growth stood at 0.9 in the assay with C. auris AR-384 (1 µM); 1.22 with C. auris AR-384 (10 µM); 0.61 in the assay with C. auris AR-386 (1 µM); 0.85 in the assay on C. auris AR-386 (10 µM); 0.67 in the assay with C. auris AR-387 (1 µM); 1.08 in the assay on C. auris AR-387 (10 µM).
In the case of `O=c1[nH]c2ccccc2n1CCN1CCN(c2cccc(C(F)(F)F)c2)CC1` [Flibanserin], the growth stood at 0.86 with C. auris AR-384 (1 µM); 0.98 in the assay on C. auris AR-384 (10 µM); 1.04 with C. auris AR-386 (1 µM); 1.04 with C. auris AR-386 (10 µM); 0.93 in the assay on C. auris AR-387 (1 µM); 1.08 in the assay on C. auris AR-387 (10 µM).
As to `C[C@H](N)[C@H](O)c1cccc(O)c1` [Metaraminol Bitartrate], the growth in the assay with C. auris AR-384 (1 µM) came out at 1.22; with C. auris AR-384 (10 µM) it was 1; with C. auris AR-386 (1 µM) it was 0.88; in the assay on C. auris AR-386 (10 µM) it was 1.2; in the assay on C. auris AR-387 (1 µM) it was 1.02; with C. auris AR-387 (10 µM), 1.07.
Regarding `Cc1ncc(CO)c(CO)c1O` [Pyridoxine HCl], the growth in the assay on C. auris AR-384 (1 µM) stood at 1.04; in the assay on C. auris AR-384 (10 µM) it was 0.74; in the assay on C. auris AR-386 (1 µM) it was 1.28; in the assay with C. auris AR-386 (10 µM), 0.66; with C. auris AR-387 (1 µM) it was 0.68; with C. auris AR-387 (10 µM) it was 0.57.
Take `CC(C)(C)CC(C)(C)c1ccc(O)c(Cc2ccc(Cl)cc2Cl)c1` [Clofoctol]: the growth with C. auris AR-384 (1 µM) stood at 1.44; in the assay with C. auris AR-384 (10 µM), 0.99; in the assay with C. auris AR-386 (1 µM), 0.92; in the assay with C. auris AR-386 (10 µM) it was 0.89; in the assay on C. auris AR-387 (1 µM), 1.1; with C. auris AR-387 (10 µM) it was 0.68.
For `CC(CCc1ccc(O)cc1)NCC(O)c1ccc(O)cc1` (stereo not given) [Ractopamine HCl], the growth in the assay on C. auris AR-384 (1 µM) came to 1.04; in the assay on C. auris AR-384 (10 µM) it was 0.83; with C. auris AR-386 (1 µM) it was 0.78; in the assay on C. auris AR-386 (10 µM), 0.96; in the assay on C. auris AR-387 (1 µM), 0.71; in the assay on C. auris AR-387 (10 µM) it was 0.87.
Turning to `CCC[C@@H]1C[C@@H](C(=O)N[C@@H]([C@H]2O[C@H](SC)[C@H](O)[C@@H](O)[C@H]2O)[C@@H](C)O)N(C)C1` [Lincomycin HCl], the growth in the assay on C. auris AR-384 (1 µM) turned out to be 0.89; with C. auris AR-384 (10 µM) it was 0.99; with C. auris AR-386 (1 µM) it was 1.07; with C. auris AR-386 (10 µM) it was 0.79; in the assay with C. auris AR-387 (1 µM) it was 0.74; in the assay with C. auris AR-387 (10 µM), 0.53.
For the compound `O[C@H]1[C@H](O)[C@@H](O)[C@H](O)[C@@H](O)[C@H]1O` [i-Inositol], the growth in the assay on C. auris AR-384 (1 µM) amounted to 0.78; with C. auris AR-384 (10 µM), 0.75; in the assay on C. auris AR-386 (1 µM) it was 0.73; in the assay with C. auris AR-386 (10 µM) it was 0.91; in the assay with C. auris AR-387 (1 µM) it was 0.83; in the assay with C. auris AR-387 (10 µM), 1.02.
Consider `CCCCCCCCc1ccc(CCC(N)(CO)CO)cc1` [Fingolimod (FTY720) HCl], for which the growth with C. auris AR-384 (1 µM) is 1.16; in the assay with C. auris AR-384 (10 µM), 0.66; with C. auris AR-386 (1 µM) it was 0.85; with C. auris AR-386 (10 µM) it was 0.58; with C. auris AR-387 (1 µM) it was 0.8; in the assay on C. auris AR-387 (10 µM) it was 0.88.
For `COC(=O)Nc1nc2cc(C(=O)c3ccccc3)ccc2[nH]1` [Mebendazole], the growth stood at 1.05 with C. auris AR-384 (1 µM); 0.82 with C. auris AR-384 (10 µM); 1 in the assay on C. auris AR-386 (1 µM); 0.86 in the assay on C. auris AR-386 (10 µM); 0.77 in the assay on C. auris AR-387 (1 µM); 1.22 in the assay with C. auris AR-387 (10 µM).
Regarding `CCOC(=O)c1ccc(N)cc1` [Benzocaine], the growth was found to be 0.78 with C. auris AR-384 (1 µM); 0.82 in the assay with C. auris AR-384 (10 µM); 0.57 in the assay with C. auris AR-386 (1 µM); 0.59 with C. auris AR-386 (10 µM); 0.74 in the assay with C. auris AR-387 (1 µM); 1.13 in the assay with C. auris AR-387 (10 µM).
For `CC(C)NC[C@@H](O)COc1ccc(CC(N)=O)cc1` [(R)-(+)-Atenolol HCl], the growth is 0.82 in the assay on C. auris AR-384 (1 µM); 0.81 in the assay with C. auris AR-384 (10 µM); 0.89 in the assay with C. auris AR-386 (1 µM); 0.61 with C. auris AR-386 (10 µM); 0.66 with C. auris AR-387 (1 µM); 0.63 in the assay on C. auris AR-387 (10 µM).
Take `Cc1cn([C@H]2C=C[C@@H](CO)O2)c(=O)[nH]c1=O` [Stavudine (d4T)]: the growth stood at 1.62 in the assay on C. auris AR-384 (1 µM); 0.87 with C. auris AR-384 (10 µM); 0.91 in the assay with C. auris AR-386 (1 µM); 1.35 in the assay on C. auris AR-386 (10 µM); 1.18 with C. auris AR-387 (1 µM); 1.23 with C. auris AR-387 (10 µM).
Regarding `C1CNCCN1` [Piperazine], the growth came to 1.29 in the assay with C. auris AR-384 (1 µM); 1.13 in the assay on C. auris AR-384 (10 µM); 0.88 with C. auris AR-386 (1 µM); 1.19 in the assay with C. auris AR-386 (10 µM); 0.83 with C. auris AR-387 (1 µM); 0.82 in the assay on C. auris AR-387 (10 µM).
Regarding `CCN1CC(CCN2CCOCC2)C(c2ccccc2)(c2ccccc2)C1=O` (stereo not given) [Doxapram HCl], the growth was 0.9 in the assay on C. auris AR-384 (1 µM); 0.81 in the assay on C. auris AR-384 (10 µM); 0.52 with C. auris AR-386 (1 µM); 0.77 with C. auris AR-386 (10 µM); 0.68 in the assay on C. auris AR-387 (1 µM); 0.76 in the assay on C. auris AR-387 (10 µM).
Consider `C[C@@H]1O[C@@H]1P(=O)(O)O` [Fosfomycin Tromethamine], for which the growth in the assay on C. auris AR-384 (1 µM) is 1.11; in the assay on C. auris AR-384 (10 µM) it was 1.16; in the assay on C. auris AR-386 (1 µM), 0.97; in the assay with C. auris AR-386 (10 µM), 1.04; in the assay on C. auris AR-387 (1 µM), 0.82; with C. auris AR-387 (10 µM) it was 0.97.
